# Among all 340,000 compounds or so, about 170 (0.05%) were called active. The inconclusive results got no clear call from the source; some entries with a clear call stand among them for comparison. Calls follow the shape of the dose curve; as a rule, active = well fitted inhibition curve with a large enough effect in the signal ratio, with a control signal flat (not every such curve was filed as active); inconclusive = small, poorly fitted or top-dose-only effect, or effect the other way, or a change in a side signal; inactive = flat fitted curve, though single readings scatter; the % refers to the signal ratio. Potencies beside an inconclusive call are fits to weak or partial responses and may not hold up.
# Test: qHTS Assay to Find Inhibitors of Chronic Active B-Cell Receptor Signaling;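 as to activity change, negative = inhibition: plate controls were basal doxycycline-induced cells for no effect and cells given 10 µM MG132 for full effect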
# Conditions: ABC-DLBCL IkBa-CBG/CBR reporter, luminescence ratio (green luciferase fused to IkBa over red control in TMD8 lymphoma cells), 4 h; activity change, negative = inhibition: at 46.1 µM (top of the series) unless noted
# Summary of the method: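 Concentration-response series (up to 46 uM) were applied to TMD8 dual-reporter cells for 4 h at 37C with doxycycline. Green/red ratio, after filter-overlap correction, defined %Activity; red signal alone was normalised to basal cells and zero luminescence.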
# Potency is read from the fitted curve at half-maximal effect.
SMILES,"activity change, negative = inhibition",Potency
COc1cc(/C=N/Nc2ccc(S(N)(=O)=O)cc2)cc(OC)c1OC,inconclusive: -17.8%,
CCOC(=O)c1ccc(NC(=O)c2nn(CC)cc2Br)cc1,inconclusive: -6.53%,
C=C(CCC(=O)c1ccccc1)C(=O)c1ccccc1,,"inconclusive: 18.4 µM [rising, single point]"
COc1ccc(C(=O)CSc2nnc(C3CC3)n2N)cc1,inconclusive: -15.1%,
Cc1ccc(Nc2c(-c3ccccn3)nc3ccc(C)cn23)cc1,inactive: -0.94%,
Cc1ccc(N=Nc2c(N)n(-c3ccccc3)[nH]c2=O)cc1,,"inconclusive: 7.08 µM [falling, full curve]"
O=C(COC(=O)c1cc(S(=O)(=O)N2CCOCC2)ccc1F)Nc1ccc(Cl)cn1,inconclusive: -0.545%,
O=C(O)c1cccc(N/N=C/c2ccc(OC(F)(F)F)cc2)c1,,"inconclusive: 35.5 µM [falling, single point]"
CCOC(=O)c1sc(NC(=O)c2ccc(Cl)s2)cc1C,,"inconclusive: 0.116 µM [falling, full curve, poor fit]"
COc1ccc(/C(O)=C2/C(=O)C(=O)N(CCCC(=O)O)C2c2ccc(OC)c(OC)c2)cc1 (centres undefined),inconclusive: -7.99%,
Nc1nc(SCC(=O)N2CCN(c3ccc(F)cc3)CC2)n[nH]1,inconclusive: 3.04%,
CC1=Nc2ccc(C)cc2/C1=C/c1c(N)n2oc(C)cc2nc1=O,inconclusive: -13.2%,"inconclusive: 3.16 µM [falling, partial curve, poor fit]"
Oc1cc2ccccc2cc1-c1n[nH]c(=S)o1,inconclusive: -10.6%,
O=C(Cn1cnc2ccccc21)Nc1cccc([N+](=O)[O-])c1,inactive: 1.26%,
Cc1nn(-c2ccccc2)c(C)c1C(=O)OCC(=O)N1CC(=O)Nc2ccccc21,,"inconclusive: 11.2 µM [falling, partial curve, poor fit]"
CCCCCCC[C@@H](C/C=C/CCC(=O)N(C)C/C(=C/Cl)C/C(=C\C(=O)N1C[C@H](O)CC1=O)OC)OC,inconclusive: -11.5%,
CC(=O)C(C)Oc1ccc2c3c(c(=O)oc2c1)CCCC3 (centres undefined),inconclusive: -0.909%,
O=C(Nc1ccccc1C(=O)N/N=C/c1ccncc1)c1ccccc1,,"inconclusive: 12.6 µM [rising, partial curve, poor fit]"
CC(=O)c1cccc(NS(=O)(=O)c2ccc(N/C=C/C(=O)c3ccc(F)cc3)cc2)c1,inconclusive: -10.4%,
O=C(O)c1ccc2c(c1)C(=O)N(c1cccc(-c3nc4ccccc4s3)c1)C2=O,,"inconclusive: 3.16 µM [rising, partial curve, poor fit]"
Cc1ccc(OCc2cc(C(=O)N(C)CCc3nc4ccccc4[nH]3)no2)cc1C,,"inconclusive: 35.5 µM [falling, single point]"
O=C(Nc1c(F)cccc1F)c1ccc(-n2cncn2)nc1,,"inconclusive: 11.2 µM [falling, partial curve]"
O=C(N/N=C/C1=Cc2ccccc2OC1)c1ccncc1,,"inconclusive: 22.4 µM [falling, partial curve]"
NC(=S)N/N=C/c1ccccc1OCCSc1ccc(Cl)cc1,inactive: -8.36%,
O=c1[nH]cnc2scc(C3COc4ccccc4O3)c12 (centres undefined),,"inconclusive: 17.8 µM [falling, partial curve, poor fit]"
CCOC(=O)N1CCN(C(=O)c2ccccc2N(Cc2ccccc2)S(=O)(=O)c2ccc(OC)cc2)CC1,,active: 15.8 µM

# Quoted from the listing.
# Value for Oc1cc2ccccc2cc1-c1n[nH]c(=S)o1 under activity change, negative = inhibition: inconclusive: -10.6%
# Value for O=C(COC(=O)c1cc(S(=O)(=O)N2CCOCC2)ccc1F)Nc1ccc(Cl)cn1 under activity change, negative = inhibition: inconclusive: -0.545%
# Value for CC(=O)c1cccc(NS(=O)(=O)c2ccc(N/C=C/C(=O)c3ccc(F)cc3)cc2)c1 under activity change, negative = inhibition: inconclusive: -10.4%

# Carrying on.

SMILES,"activity change, negative = inhibition",Potency
CCOc1ccc2nc(NC(=O)CN3CCC(n4nnc5cc(F)ccc54)CC3)sc2c1,,"inconclusive: 29.1 µM [falling, partial curve, poor fit]"
O=C(Nc1ccc(S(=O)(=O)Nc2nccs2)cc1)c1cc(-c2ccccc2)nc2ccccc12,inconclusive: 11.1%,
COc1cccc(C(=O)Nc2c3c(nn2-c2ccc(Cl)cc2)CS(=O)(=O)C3)c1,inconclusive: -10.8%,
CCCn1c(SCC(=O)Nc2nnc(CC)s2)nc2c1c(=O)n(C)c(=O)n2C,inactive: 4.16%,
N=c1c2c(n(Cc3ccc(Cl)cc3)c3c1CCC3)CCC2,inconclusive: 0.207%,
COc1cc(OC)cc(-c2cc3nc(C)c(CCC(=O)NC(C)CCc4ccco4)c(C)n3n2)c1 (centres undefined),,"inconclusive: 29.1 µM [falling, single point]"
Nc1nc(Nc2ccccc2F)nc(NCc2ccccc2)c1[N+](=O)[O-],inconclusive: -1.33%,
O=S(=O)(Nc1ccncc1Cl)c1ccccc1,inconclusive: -2.13%,
COc1ccc(-c2csc(N(CCCN(C)C)C(=O)c3ccc(C(C)(C)C)cc3)n2)cc1,inconclusive: -4.78%,
CN1c2ccccc2N(C)C1c1ccc2c(c1)OCO2,inactive: 2.99%,
O=C(CSc1ccc2ccccc2n1)NC1CC1,inconclusive: 1.15%,
COc1ccc(C2=NOC(Cn3nc(-c4ccccc4)cc3C(=O)NCc3cccs3)C2)cc1 (centres undefined),inconclusive: -0.971%,
C=C1c2ccccc2S(=O)(=O)N(Cc2ccccc2)C1COCc1ccccc1 (centres undefined),inconclusive: -7.84%,
Cc1cc(Br)ccc1OCC(=O)NNC(=O)C(=O)Nc1ccccc1,,"inconclusive: 35.5 µM [falling, single point]"
CC(C)CC(=O)NCc1ccc2[nH]c3c(c2c1)CCCC3,inactive: 4.26%,
Cc1ccc(CNC(=O)CSc2nc3n[nH]c(C)c3c(=N)n2-c2cccc(C)c2)cc1,,"inconclusive: 6.31 µM [falling, single point]"
c1cc2nnnn2nc1N1CCCCCC1,inconclusive: 9.14%,
COc1ccc(CCNC(=O)c2cccc(Br)c2)cc1OC,inconclusive: -15.4%,
C/C(N=Nc1nc2ccccc2s1)=N\Nc1ccccc1O,inconclusive: 11.4%,
COc1ccc(C(=O)NCC(=O)OCn2nnc3ccccc3c2=O)cc1OC,inconclusive: -13.4%,
COc1ccc(N(CC(=O)N2CCN(c3ccc(F)cc3)CC2)S(=O)(=O)c2c(C)n[nH]c2C)cc1,inconclusive: -0.766%,
CC(=O)Nc1ccc(S(=O)(=O)Nc2cccc(-c3nc4ccccc4o3)c2)cc1,,"inconclusive: 20.6 µM [falling, partial curve, poor fit]"
COc1cc(NC(=S)NC(=O)c2ccc(C)cc2C)ccc1NC(=O)c1cccs1,inconclusive: -14.3%,
CN1C(=O)COc2ccc(C(=O)c3oc4ccccc4c3-c3cnc4c(c3)COc3ccccc3-4)cc21,inactive: 12.5%,
Cc1csc(=O)n1CC(=O)OCC(=O)Nc1ccc(F)c(F)c1,inconclusive: 7.55%,
Cc1ccc(C)c(-n2c(-c3csc(C)c3)n[nH]c2=S)c1,inconclusive: -20%,

SMILES,"activity change, negative = inhibition",Potency
O=C(NCC1CCCO1)C1CCCN(S(=O)(=O)c2ccc(Cl)cc2)C1 (centres undefined),inconclusive: -21.4%,
O=c1[nH]ncc(N2CCN(C(c3ccccc3)c3ccccc3)CC2)c1Cl,inactive: -5.65%,
Cc1csc(=O)n1CC(=O)OCC(=O)c1c(N)n(CC(C)C)c(=O)n(C)c1=O,inactive: -6.69%,
N/C(=N\OC(=O)Nc1ccccc1)c1ncc([N+](=O)[O-])s1,,"inconclusive: 5.62 µM [rising, partial curve, poor fit]"
O=C(Nc1nc(=O)c2ccccc2s1)c1ccc(Cl)cc1,,"inconclusive: 0.517 µM [falling, partial curve, poor fit]"
COc1ccc(-n2cc(CNCCc3nc(C)cc(C)n3)c(-c3ccccc3Cl)n2)cc1,inconclusive: 2.16%,
O=C(NCc1ccc(Cl)cc1)c1cnn2ccccc12,,"inconclusive: 3.26 µM [rising, full curve, poor fit]"
COc1ccc2[nH]c3c(=O)n(CCCCC(=O)N4CCC(C(N)=O)CC4)c(=S)[nH]c3c2c1,inconclusive: -1.8%,
COc1ccc2nc(NC(=O)c3ccccc3-c3ccccc3C(=O)O)sc2c1,inconclusive: -20.2%,
O=C(Nc1ccc(Oc2ccsc2C(=O)O)cc1)c1ccccc1,,"inconclusive: 11.2 µM [falling, partial curve]"
CCOC(=O)c1cnc2ccc(OC)cc2c1Nc1ccc2c(c1)OCCO2,inconclusive: -11.4%,
Cc1cccc(NC(=O)CSc2nnc(NC(=O)c3ccco3)s2)c1,inactive: 4.2%,
O=C(N/N=C/c1cccs1)c1n[nH]c2c1CCC2,,"inconclusive: 2.91 µM [falling, single point]"
O=S(=O)(Nc1ccc(Cl)cn1)c1ccccc1,inactive: 2.66%,
CCOC(=O)c1c(-c2cccs2)csc1NC(=O)CNCCN1CCOCC1,inactive: -0.933%,
O=S(=O)(Nc1ccc(-c2nc3cccnc3s2)cc1)c1cccs1,inactive: 9.12%,
COc1ccccc1NC(=O)/C=C1\NC(=O)CS1,,"inconclusive: 0.447 µM [falling, partial curve, poor fit]"
CC(N)(C(=O)O)c1cccc(OCc2cccc(Cl)c2)c1 (centres undefined),inconclusive: 5.83%,
COc1ccc(Cl)cc1NC(=S)Nc1ccc(Cl)cn1,inactive: -3.75%,
Cc1ccc2cc(C#N)c(NCCNC(=O)C3CC3)nc2c1C,inactive: 0.52%,
CC(C)C[C@H](NC(=O)c1nc[nH]c1C(=O)NCCCCCNC(=O)OC(C)(C)C)C(=O)OCc1ccccc1,,"inconclusive: 35.5 µM [falling, single point]"
COc1ccc(N2CCC(CNC(=S)Nc3cccc(C)c3)C2)cc1 (centres undefined),inactive: -3.62%,
Cc1cc(OCC(=O)Nc2cc(-c3nn4c(C)nnc4s3)ccc2C)ccc1Cl,inactive: 2.93%,
CC(=O)C1=C(C)NC(=O)CC1c1ccc(F)cc1 (centres undefined),inconclusive: 3.09%,
CS(=O)(=O)N1CCN(c2ccccc2NC(=O)c2ccc3c(c2)OCCO3)CC1,inactive: 7.58%,
Cc1nnc(SCc2cc(=O)[nH]c(=S)[nH]2)s1,inconclusive: 9.28%,
